# Results from US11104657B2, “Notch inhibitors for use in the treatment of t-cell acute lymphoblastic leukemia” (UNIVERSITÀ DEGLI STUDI DI ROMA “LA SAPIENZA”, priority 2016, dated 2021).
# For at least one compound, name, drawing or mass did not settle the structure.
# Legend:
# Assay type in all cases: cell-based, human
# [1] = system: Notch1 activated domain (N1VAL) in KOPTK1 cells; test: Western blot of N1VAL expression in KOPTK1 cells; conditions: 36 hours, increasing concentrations, dose-dependent
# [2] = system: Notch3 intracellular domain (N3ICD) in TALL-1 cells; test: Western blot of N3ICD expression in TALL-1 cells; conditions: 36 hours, increasing concentrations, dose-dependent
# [3] = system: DELTEX1, HES1, c-MYC expression in DND41 cells; test: Real-time PCR of Notch gene targets, DND41; conditions: 36 hours, 2.5 μM
# [4] = system: DELTEX1, HES1, c-MYC expression in KOPTK1 cells; test: Real-time PCR of Notch gene targets, KOPTK1; conditions: 36 hours, 2.5 μM
# [5] = system: DELTEX1, HES1, c-MYC expression in TALL-1 cells; test: Real-time PCR of Notch gene targets, TALL-1; conditions: 36 hours, 1 μM
smiles,measurement,setting,value
"COc1ccc(C(=O)/C=C/c2ccc(O)cc2)c(O)c1 [Compound 8, 2′,4-dihydroxy-4′-methoxychalcone]",N1VAL expression levels,[1],reduced
same,N3ICD expression levels,[2],reduced
same,"expression of Notch gene targets DELTEX1, HES1 and c-MYC",[3],significantly reduces
same,"expression of Notch gene targets DELTEX1, HES1 and c-MYC",[4],significantly reduces
same,"expression of Notch gene targets DELTEX1, HES1 and c-MYC",[5],significantly reduces
